Where a name gives a salt, the structure may show the parent alone.
Tested on: PC-3 cells
Assay: IC50 determination, SRB cell density assay, PC-3
Assay type: cell-based
Conditions: Homo sapiens
Method in brief: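 Cells were seeded in 96-well plates (PC-3 at 3 × 10³, T47D at 5 × 10³) and left overnight. They were exposed 72 h at 37 °C to increasing test compound concentrations with DMSO vehicle, washed, then regrown 48 h in fresh medium. Readout was by SRB: TCA fixation overnight, 0.5% SRB for 20 min, acetic acid washes, dye dissolved in 10 mM Tris, OD at 560 nm. Density was taken relative to untreated cells (100%). Runs were in triplicate, and IC50 came from a four-parameter nonlinear fit.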

- IC50: 0.0227 ± 0.00417 µM
SMILES: COc1cccc2c1C(=O)c1c(O)c3c(c(O)c1C2=O)C[C@@](O)(C(=O)CO)C[C@@H]3O[C@H]1C[C@H](N)[C@H](O)[C@H](C)O1 [DXR, doxorubicin hydrochloride]

Source: paper PMC12316622 (EJNMMI Research, 2025)
